Literature values in patent publication US20110300232A1, “EFFECTS OF NITRIC OXIDE (NO) AND iNOS ON EXPRESSION AND SIGNAL TRANSDUCTION IN CANCER AND ITS USE IN DRUG DISCOVERY AND CANCER THERAPY DESIGN” (priority 2010, published 2011).

Details: fraction of the NO concentration generated by DEA/NO

Row | Compound | NO concentration generated relative to DEA/NO
1 | NCCN(CCN)/[N+]([O-])=N/O [DETA/NO] | one-third
2 | NCCCNCCCCN(CCCN)/[N+]([O-])=N/O [Sper/NO] | one-third
